Several values for one entry are separate records, joined by “and”; a condition that tells them apart may be missing. Identical values can stand only once. The list shows a part of the results. These are further read-outs of the screen, such as a control signal, another cell line or another target. No call is given for them. Compounds called inactive in the main read-out are mostly missing here. Potencies come from curve fits of mixed quality, noted in brackets.

The test is described as follows: qHTS Assay for Modulators of Lamin A Splicing. The note with it: HeLa LMNA splicing GFP/RFP minigene ratio, 48 h. A digest of the protocol:
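Read-out is the ratio of GFP to DsRed2 object intensity, acquired by 488 nm laser-scanning cytometry on HeLa lamin A-EGFP minigene reporter cells. Compound incubation 48 hrs at 37 °C in Opti-MEM with 2% FBS; DMSO 0.5% final.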

Setting [1] is: measured here: GFP splicing reporter channel.
[2] abbreviates: measured here: RFP viability control channel.

For the molecule `COCCOC(=O)C1=C(C)NC(C)=C(C(=O)OC(C)C)C1c1cccc([N+](=O)[O-])c1` (centres undefined), the AC50 is, setting by setting: under setting [1], 14.1 µM [falling, partial curve] and 0.794 nM [falling, full curve, poor fit] and 12.6 µM [rising, partial curve, poor fit]; under setting [2], 4.47 nM [falling, full curve, poor fit] and 20 µM [rising, partial curve].

For `Cc1cc2c(cc1S(=O)(=O)CCC(=O)NCc1ccccc1)OCC(=O)N2`, the AC50 reads like this: under setting [1], 35.5 µM [falling, single point]; under setting [2], 0.00316 µM [falling, full curve, poor fit].

For `CC(C)CC(COCc1ccc(Cl)cc1)N1CCN(C(=O)c2ccc(C(F)(F)F)cc2)CCC1=O` (centres undefined), the AC50 is 14.1 µM [rising, partial curve] under setting [1] and 14.1 µM [rising, partial curve] under setting [2].

For the molecule `NCCS`, under setting [2], the AC50 was 20 µM [rising, single point] and 3.98 µM [falling, partial curve].

On to `O=C(NCCc1cccs1)c1ccc(Cl)c(Cl)c1`, for which the AC50 under setting [2] was 0.891 µM [falling, full curve, poor fit].

`COC(=O)c1sc(NC(=S)NC(=O)c2ccccc2C)nc1C`: the concentration at half-maximal activity (AC50) under setting [2] was 0.00355 µM [falling, full curve, poor fit].

In the case of `O=C(O)c1cc(Br)ccc1NN=C1CCCCC1`, under setting [1], the AC50 is 0.0447 µM [falling, full curve, poor fit].

As for `Cc1cc(C)c2c(N=NN3CCOCC3)[nH]nc2n1`, under setting [2], the AC50 was 22.4 µM [rising, single point].

`CO/N=C/c1ccc(N2CCOCC2)c([N+](=O)[O-])c1`: the AC50 under setting [2] is 20 µM [rising, partial curve].

`CCCCn1c(CN2CCN(c3cccc(Cl)c3)CC2)nc2c1c(=O)[nH]c(=O)n2C`: under setting [2], the half-maximal activity concentration (AC50) was 3.16 µM [rising, single point].

With `NC(=O)c1cc(N2C(=O)C=CC2=O)ccc1Cl`, the AC50 under setting [2] was 35.5 µM [rising, single point].

On to `Cc1cc(C)cc(NC(=O)CSCc2cc(=O)c3cc(Cl)ccc3[nH]2)c1`, for which the AC50 is 0.398 µM [rising, full curve] under setting [1] and 5.01 µM [rising, partial curve] under setting [2].

Regarding `Cc1cccc(NC(=O)Cn2nc(C)c3nn(-c4ccc(Cl)cc4)c(C)c3c2=O)c1C`, the AC50 under setting [1] is 35.5 µM [falling, partial curve, poor fit] and the half-maximal activity concentration (AC50) under setting [2] was 35.5 µM [falling, partial curve, poor fit].

Consider `CC(=O)c1cc2cc(O)ccc2o1`, for which the half-maximal activity concentration (AC50) under setting [1] is 2.51 µM [falling, full curve] and the half-maximal activity concentration (AC50) under setting [2] is 3.16 µM [falling, partial curve].

On to `COc1ccc(C(=O)Nc2cccc(S(C)(=O)=O)c2)cc1OC`, for which the AC50 is, setting by setting: under setting [1], 0.00501 µM [falling, full curve, poor fit]; under setting [2], 0.00891 µM [falling, full curve, poor fit].

In the case of `Cc1ccc(-c2c[n+](Cc3ccc(Cl)c(Cl)c3)c3n2CCC3)cc1`, the concentration at half-maximal activity (AC50) is 6.31 µM [rising, single point] under setting [1] and 6.31 µM [rising, full curve] under setting [2].

For the molecule `Cc1cccc(N2C(=O)CSC23C(=O)N(CC(=O)NCCc2ccccc2)c2ccccc23)c1` (centres undefined), the AC50 under setting [2] was 12.6 µM [rising, single point].

`O=C(CN1CCN(c2ncc(C(F)(F)F)cc2Cl)CC1)Nc1ccc2c(c1)OCO2`: under setting [2], the half-maximal activity concentration (AC50) is 12.6 µM [rising, single point].

Regarding `CN1C(C(=O)Nc2ccccn2)=C(O)c2ccccc2S1(=O)=O`, under setting [1], the half-maximal activity concentration (AC50) is 0.398 nM [falling, full curve, poor fit] and 355 nM [falling, full curve, poor fit].

Regarding `CCCCn1nc(C(=O)N[C@@H](CCSC)c2nc3ccccc3[nH]2)c2ccccc2c1=O`, the half-maximal activity concentration (AC50) under setting [1] is 7.08 µM [rising, partial curve].

Regarding `CC(C)(C)c1ccc(OCCNC(=S)NC(=O)c2cccnc2)cc1`, the half-maximal activity concentration (AC50) by setting is: under setting [1], 7.08 µM [rising, full curve]; under setting [2], 8.91 µM [rising, partial curve, poor fit].

Consider `Nc1nc(CN2CCN(c3ccc(F)cc3)CC2)nc(N2CCCc3ccccc32)n1`, for which the AC50 under setting [2] is 10 µM [rising, partial curve].

With `O=C(/C=C/c1ccc([N+](=O)[O-])cc1)NCc1ccccn1`, the AC50 runs as follows: under setting [1], 25.1 µM [rising, single point]; under setting [2], 35.5 µM [rising, single point].

Take `O=C1CC(c2ccccc2)C(C(=O)Nc2ccccc2F)N1` (centres undefined): the concentration at half-maximal activity (AC50) under setting [2] was 1.41 µM [rising, full curve, poor fit].

Consider `Cc1cc([N+](=O)[O-])ccc1NC(=O)Nc1ccc(F)cc1F`, for which, under setting [2], the half-maximal activity concentration (AC50) was 7.08 µM [rising, single point].

As for `CCOC(=O)c1nc2sc3c(c2c(=O)n1C(C)C(=O)OCC)CCCC3` (centres undefined), the half-maximal activity concentration (AC50) under setting [1] is 0.501 µM [rising, full curve, poor fit].

Consider `Cc1cccc(-n2c3nc(=O)[nH]c(=O)c-3cc3cc([N+](=O)[O-])ccc32)c1`, for which the AC50 by setting is: under setting [1], 15.8 µM [rising, single point]; under setting [2], 17.8 µM [rising, single point].

On to `O=C(NCc1ccccc1)c1noc2c1CCCC2`, for which the AC50 under setting [2] was 31.6 µM [rising, single point].

As to `CCN(CC)C(=O)CSc1ncccc1-c1nc2ccccc2[nH]1`, the AC50 under setting [2] is 0.447 µM [falling, full curve, poor fit].

With `Cc1nnc(NC(=O)c2ccc(C)c(S(=O)(=O)N3CCCCCC3)c2)s1`, the half-maximal activity concentration (AC50) under setting [2] was 35.5 µM [rising, single point].

In the case of `CN1CCN(c2nc(-c3ccc(N(C)C)cc3)nc3ccccc23)CC1`, under setting [1], the AC50 was 28.2 µM [falling, single point].

Turning to `CC(C)(C)c1ccc(-c2nc(-c3ccncc3)no2)cc1`, the AC50 under setting [1] was 35.5 µM [rising, single point] and the half-maximal activity concentration (AC50) under setting [2] was 35.5 µM [rising, single point].

For `Cn1c(N)c(C(=O)COC(=O)c2cc(S(=O)(=O)N3CCCCC3)ccc2Cl)c(=O)n(C)c1=O`, the AC50 is, setting by setting: under setting [1], 8.91 µM [rising, partial curve]; under setting [2], 11.2 µM [rising, single point].

On to `Cc1noc(C)c1C(=O)N1CC(C)OC(C)C1` (centres undefined), for which the AC50 under setting [1] was 2.51 µM [falling, partial curve, poor fit] and the AC50 under setting [2] was 1.78 µM [falling, full curve, poor fit].

With `CCOC(=O)c1cccc(NC(=O)Cc2ccc(NC(=O)N3CCCCc4ccccc43)cc2)c1`, the AC50 under setting [2] was 11.2 µM [rising, single point].

As to `OCCCNC(c1ccccc1)c1ccc(O)cc1` (centres undefined), under setting [2], the AC50 is 35.5 µM [rising, single point].

Regarding `CC1(C)CC(c2csc(N)n2)CCO1` (centres undefined), the AC50 under setting [1] is 14.1 µM [rising, partial curve].

On to `CC1(OC(=O)C2CCCC2)C(=O)C=C2C=C(c3ccsc3)N(Cc3ccco3)C=C2C1=O` (centres undefined), for which the concentration at half-maximal activity (AC50) under setting [1] was 0.00112 µM [rising, full curve, poor fit].

For `O=C(c1cc(-c2ccccc2)nc2ccccc12)N1CCCc2ccccc21`, the half-maximal activity concentration (AC50) under setting [2] was 17.8 µM [rising, single point].

As for `CCOC(=O)c1ccc(N2CCN(c3cccc(Cl)c3)CC2)c(NC(=O)Nc2ccc(Cl)cc2)c1`, the AC50 under setting [1] is 7.08 µM [falling, full curve, poor fit].

For `O=C(NNC1=C(C(=O)C(F)(F)F)CCC1)c1ccc(Cl)cc1`, the AC50 under setting [1] is 35.5 µM [rising, single point] and the concentration at half-maximal activity (AC50) under setting [2] is 35.5 µM [rising, single point].

For `CCOC(=O)c1[nH]c(C)c(CCC(=O)N2CCN(c3cc(Cl)ccc3C)CC2)c1C`, the AC50 runs as follows: under setting [1], 22.4 µM [rising, partial curve, poor fit]; under setting [2], 35.5 µM [rising, partial curve, poor fit].

For `COc1ccc(Cl)cc1NC(=O)C1CCCN(c2cc(C)nc3ncnn23)C1` (centres undefined), the AC50 under setting [2] is 2.24 µM [rising, partial curve, poor fit].

`COc1ccc(-c2noc(N3CCN(c4cccc(Cl)c4)CC3)n2)cc1OC`: the AC50 under setting [1] was 7.94 µM [falling, full curve, poor fit].

Turning to `CCOC(=O)N1CCC(C(=O)Nc2ccc(OCC)cc2)CC1`, the AC50 under setting [2] was 3.55 µM [rising, partial curve].

With `CCc1sc(Nc2ccc(Cl)cc2)nc1-c1cc2cccc(OC)c2oc1=O`, the AC50 under setting [2] is 0.501 µM [rising, partial curve, poor fit].

Turning to `CCCCC(c1nnnn1Cc1ccco1)N1CCN(c2nc3ccccc3s2)CC1` (centres undefined), the half-maximal activity concentration (AC50) is, setting by setting: under setting [1], 10 µM [rising, partial curve]; under setting [2], 14.1 µM [rising, partial curve].

In the case of `CN(C)c1ccnc(SCc2ccccc2Cl)c1C#N`, the concentration at half-maximal activity (AC50) is 11.2 µM [rising, partial curve] under setting [1] and 11.2 µM [rising, partial curve] under setting [2].

As for `COc1ccc(NC(=O)C2CCN(c3cc(C)nc(-c4ccccc4)n3)CC2)cc1`, the half-maximal activity concentration (AC50) under setting [2] was 17.8 µM [rising, single point].

In the case of `O=C(NCC(c1cccnc1)N1CCN(c2ccccc2)CC1)OCc1ccccc1` (centres undefined), the half-maximal activity concentration (AC50) was 31.6 µM [rising, single point] under setting [1] and 31.6 µM [rising, single point] under setting [2].

On to `Cc1ccc2c(ccc(=S)n2C)c1`, for which the AC50 under setting [1] is 15.8 µM [falling, single point].

For `CC1(C)[C@@H](O)CC[C@]2(C)[C@H]3C(=O)C=C4[C@@H]5C[C@@](C)(C(=O)O)CC[C@]5(C)CC[C@@]4(C)[C@]3(C)CC[C@@H]12`, the AC50 by setting is: under setting [1], 35.5 µM [falling, single point]; under setting [2], 0.0891 µM [falling, full curve, poor fit].

In the case of `Cc1ccc(CN2CCC(CNC(=O)c3cc4ccc5cccnc5c4[nH]3)CC2)cc1`, the AC50 is, setting by setting: under setting [1], 17.8 µM [falling, partial curve, poor fit]; under setting [2], 11.2 µM [falling, partial curve].

These data come from PubChem BioAssay AID1487 (National Center for Advancing Translational Sciences (NCATS), 2009).
